Experimental data: patent US20040082614A1, “Methods of treating infection using anitbiotics and glycogen phosphorylase inhibitors” (Pfizer Inc., priority 2002, published 2004)
Some results were stated once for a whole list of compounds, not compound by compound. At least one compound was matched to its structure with a doubt left.

Tested on: Chlamydia pneumonia
Assay: Minimum inhibitory concentration (MIC) determination in Hep2 cells infected with Chlamydia pneumonia, inclusion bodies by fluorescent microscopy
Assay type: cell-based
Details: summary statement; combination with azithromycin
Protocol: Hep2 cells maintained in Isocove's Modified Dulbecco's Medium (IMDM) were infected with Chlamydia pneumonia (0.5 MOI for two hours after one hour centrifugation). Cells were then treated with Compound A (0, 5, 10, 20, 30 or 40 μg/ml) or Compound B (0, 5, 10, 20, 30 or 40 μg/ml) alone and/or in combination with azithromycin (Pfizer, Inc., New York, N.Y.) 0, 0.005, 0.0158, 0.050, 0.158, or 0.5 μg/ml). For minimum inhibitory concentration (MIC) determination, cells were terminated for analysis at 72 h after the addition of drugs. For minimum bacteriocidal concentration (MBC) determination, drugs were removed at 72 h post-treatment, the media was replaced, and cells were maintained for an additional 72 h before termination. At termination, cells were analyzed for quantitation of inclusion bodies using fluorescent microscopy, and general cell viability by microscopic visualization.

SMILES	reduction of the MIC for azithromycin by the glycogen phosphorylase inhibitor
O=C(N[C@@H](Cc1ccccc1)[C@@H](O)C(=O)N1C[C@@H](O)[C@@H](O)C1)c1cc2cc(Cl)ccc2[nH]1 [Compound B]	3-10 fold
O=C(N[C@@H](Cc1ccc(F)cc1)C(=O)N1CCC(O)CC1)c1cc2cc(Cl)ccc2[nH]1 [Compound A, 5-chloro-1H-indole-2-carboxylic acid [(1S)-(4-fluoro-benzyl)-2-(4-hydroxypiperidin-1-yl)-2-oxo-ethyl]-amide]	3-10 fold
